Consider one substance from PMC12499477.

No constants are given. Whether binding was seen depends on the method and setting. In cells and extracts the contact can be indirect. Some results given as binding are weak or reduced against the parent protein; the word gives no strength.

In this test the target is T1, Golgi membrane protein 1 (GOLM1) (mouse (endogenous in primary podocytes)) (UniProt Q91XA2).
T1 sequence: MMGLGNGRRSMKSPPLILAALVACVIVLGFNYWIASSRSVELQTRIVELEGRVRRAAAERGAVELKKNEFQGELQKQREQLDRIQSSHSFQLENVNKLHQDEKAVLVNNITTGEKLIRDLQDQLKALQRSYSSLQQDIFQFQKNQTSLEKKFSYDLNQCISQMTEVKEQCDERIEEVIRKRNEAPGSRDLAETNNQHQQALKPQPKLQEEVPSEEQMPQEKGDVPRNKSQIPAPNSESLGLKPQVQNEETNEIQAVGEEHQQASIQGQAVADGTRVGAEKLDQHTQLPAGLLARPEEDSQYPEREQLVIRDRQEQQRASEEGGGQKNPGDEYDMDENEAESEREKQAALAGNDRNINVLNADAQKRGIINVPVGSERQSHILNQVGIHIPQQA
Nature of the test: co-IP; podocyte lysates immunoprecipitated with anti-GOLM1 or IgG, then western blot for EGFR.

For “epidermal growth factor receptor (EGFR) (from UniProt Q01279 25-1210)”, the binding result is “binds”.
